This is one part of the list.
How the values were obtained:
Experiment in all cases: glycan array binding signal (z-score within array); higher = stronger binding
Settings in all cases: glycan notation: IUPAC condensed, linker removed
Gal3S(b1-4)Glc = molecular target: Gal3S(b1-4)Glc
Procedure, shortened: (§1)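 Negative Z-scores can be read as non-binding. The Z-score is calculated within each array and then averaged across arrays of one protein sequence at different concentrations or buffers and across linkers. Arrays, 3228 in all, were curated from the Consortium for Functional Glycomics database and kept only where the protein sequence was available.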

Gal3S(b1-4)Glc6S = molecular target: Gal3S(b1-4)Glc6S
Procedure, shortened: as §1

Gal3S(b1-4)GlcNAc = molecular target: Gal3S(b1-4)GlcNAc
Procedure, shortened: as §1

[1] = molecular target: Gal3S(b1-4)[Fuc(a1-3)]Glc6S
Procedure, shortened: as §1

[2] = molecular target: Gal3S(b1-4)[Fuc(a1-3)]GlcNAc
Procedure, shortened: as §1

[3] = molecular target: Gal3S(b1-4)[Fuc(a1-3)]GlcNAc6S
Procedure, shortened: as §1

Gal3S4S(b1-4)GlcNAc = molecular target: Gal3S4S(b1-4)GlcNAc
Procedure, shortened: as §1

Gal3S6S(b1-4)GlcNAc = molecular target: Gal3S6S(b1-4)GlcNAc
Procedure, shortened: as §1

Gal3S6S(b1-4)GlcNAc6S = molecular target: Gal3S6S(b1-4)GlcNAc6S
Procedure, shortened: as §1

Gal4S(b1-4)GlcNAc = molecular target: Gal4S(b1-4)GlcNAc
Procedure, shortened: as §1

Gal4S6S(b1-4)GlcNAc = molecular target: Gal4S6S(b1-4)GlcNAc
Procedure, shortened: as §1

Gal6P(b1-4)GlcNAc = molecular target: Gal6P(b1-4)GlcNAc
Procedure, shortened: as §1

Gal6S(b1-3)GlcNAc = molecular target: Gal6S(b1-3)GlcNAc
Procedure, shortened: as §1

Gal6S(b1-3)GlcNAc6S = molecular target: Gal6S(b1-3)GlcNAc6S
Procedure, shortened: as §1

Gal6S(b1-4)Glc = molecular target: Gal6S(b1-4)Glc
Procedure, shortened: as §1

Gal6S(b1-4)Glc6S = molecular target: Gal6S(b1-4)Glc6S
Procedure, shortened: as §1

Gal6S(b1-4)GlcNAc = molecular target: Gal6S(b1-4)GlcNAc
Procedure, shortened: as §1

Gal6S(b1-4)GlcNAc6S = molecular target: Gal6S(b1-4)GlcNAc6S
Procedure, shortened: as §1

GalNAc(a1-3)Gal = molecular target: GalNAc(a1-3)Gal
Procedure, shortened: as §1

GalNAc(a1-3)GalNAc = molecular target: GalNAc(a1-3)GalNAc
Procedure, shortened: as §1

[4] = molecular target: GalNAc(a1-3)GalNAc(b1-3)Gal(a1-4)Gal(b1-4)Glc
Procedure, shortened: as §1

[5] = molecular target: GalNAc(a1-3)GalNAc(b1-3)Gal(a1-4)Gal(b1-4)GlcNAc
Procedure, shortened: as §1

GalNAc(b1-3)Gal = molecular target: GalNAc(b1-3)Gal
Procedure, shortened: as §1

[6] = molecular target: GalNAc(b1-3)Gal(a1-4)Gal(b1-4)GlcNAc
Procedure, shortened: as §1

[7] = molecular target: GalNAc(b1-3)Gal(a1-4)Gal(b1-4)GlcNAc(b1-3)Gal(b1-4)Glc
Procedure, shortened: as §1

[8] = molecular target: GalNAc(b1-3)Gal(a1-6)Gal(b1-4)Glc
Procedure, shortened: as §1

GalNAc(b1-3)GalNAc = molecular target: GalNAc(b1-3)GalNAc
Procedure, shortened: as §1

GalNAc(b1-3)GlcNAc = molecular target: GalNAc(b1-3)GlcNAc
Procedure, shortened: as §1

GalNAc(b1-4)Gal(b1-4)Glc = molecular target: GalNAc(b1-4)Gal(b1-4)Glc
Procedure, shortened: as §1

GalNAc(b1-4)GlcNAc = molecular target: GalNAc(b1-4)GlcNAc
Procedure, shortened: as §1

[9] = molecular target: GalNAc(b1-4)GlcNAc(b1-2)Man
Procedure, shortened: as §1

[10] = molecular target: GalNAc(b1-4)GlcNAc(b1-2)Man(a1-3)[GalNAc(b1-4)GlcNAc(b1-2)Man(a1-6)]Man(b1-4)GlcNAc(b1-4)GlcNAc
Procedure, shortened: as §1

[11] = molecular target: GalNAc(b1-4)GlcNAc(b1-3)GalNAc(b1-4)GlcNAc
Procedure, shortened: as §1

GalNAc(b1-4)GlcNAc6S = molecular target: GalNAc(b1-4)GlcNAc6S
Procedure, shortened: as §1

GalNAc(b1-6)GalNAc = molecular target: GalNAc(b1-6)GalNAc
Procedure, shortened: as §1

GalNAc3S(b1-4)GlcNAc = molecular target: GalNAc3S(b1-4)GlcNAc
Procedure, shortened: as §1

GalNAc3S(b1-4)GlcNAc3S = molecular target: GalNAc3S(b1-4)GlcNAc3S
Procedure, shortened: as §1

B1: PX9961M-bvu-482-23-482 (Bacteroides vulgatus) (protein)
chain: WLDLAPSTQVDTETSINVLSDIEFTLNGIYSTMQSSDAYSGRLVYYGDVTGDDMQAVSSTKRTGNYYRFNFTKDNGPSSHWSYLYSIIQNCNLILMNVDKLSIDEDETEYKNDLKGQALAIRGMALFDLTRIFGYPYLKDNGASLGVPIVKELSTIDSKPARNTVAECYTEIISDLKNSTELLSGDFNKGKVNRWAAMTLLSRVYLYKGEYNEALTMAENAIKGAEKEGYALWTNEEYPTAWGNDASASNPGEILFEIVNLTTDSPGKESMGYLNSYNGYDDMCITCSFYQLLKKDPKDVRLKILSFDKKYYAYVNKYQPQQGENITDANIPLIRLSEAYLNAAEAAVQTGDNAKAVKYLNSIVQRANPENSVEGKTLTLENVLDERRKELVAEGHRMYDVIRNGMTVKRIDVKDSDINKTKHNTAYMEYDWNFHKILLPIPKKEMDANPNMKQNPGYVD
glycan array binding signal (z-score) (Gal3S(b1-4)Glc): -0.19
glycan array binding signal (z-score) (Gal3S(b1-4)Glc6S): 0.344
glycan array binding signal (z-score) (Gal3S(b1-4)GlcNAc): 0.151
glycan array binding signal (z-score) [1]: 1.08
glycan array binding signal (z-score) [2]: 0.751
glycan array binding signal (z-score) [3]: 0.037
glycan array binding signal (z-score) (Gal3S4S(b1-4)GlcNAc): 0.382
glycan array binding signal (z-score) (Gal3S6S(b1-4)GlcNAc): 0.337
glycan array binding signal (z-score) (Gal3S6S(b1-4)GlcNAc6S): 0.726
glycan array binding signal (z-score) (Gal4S(b1-4)GlcNAc): -1.02
glycan array binding signal (z-score) (Gal4S6S(b1-4)GlcNAc): -0.475
glycan array binding signal (z-score) (Gal6P(b1-4)GlcNAc): -0.201
glycan array binding signal (z-score) (Gal6S(b1-3)GlcNAc): 0.375
glycan array binding signal (z-score) (Gal6S(b1-3)GlcNAc6S): 0.068
glycan array binding signal (z-score) (Gal6S(b1-4)Glc): -0.175
glycan array binding signal (z-score) (Gal6S(b1-4)Glc6S): -0.529
glycan array binding signal (z-score) (Gal6S(b1-4)GlcNAc): 0.962
glycan array binding signal (z-score) (Gal6S(b1-4)GlcNAc6S): -0.084
glycan array binding signal (z-score) (GalNAc(a1-3)Gal): 0.322
glycan array binding signal (z-score) (GalNAc(a1-3)GalNAc): 0.474
glycan array binding signal (z-score) [4]: -0.666
glycan array binding signal (z-score) [5]: -1.08
glycan array binding signal (z-score) (GalNAc(b1-3)Gal): -0.595
glycan array binding signal (z-score) [6]: -0.185
glycan array binding signal (z-score) [7]: -0.563
glycan array binding signal (z-score) [8]: -0.694
glycan array binding signal (z-score) (GalNAc(b1-3)GalNAc): -0.1
glycan array binding signal (z-score) (GalNAc(b1-3)GlcNAc): -0.203
glycan array binding signal (z-score) (GalNAc(b1-4)Gal(b1-4)Glc): -0.195
glycan array binding signal (z-score) (GalNAc(b1-4)GlcNAc): 0.545
glycan array binding signal (z-score) [9]: -0.411
glycan array binding signal (z-score) [10]: 0.193
glycan array binding signal (z-score) [11]: -0.527
glycan array binding signal (z-score) (GalNAc(b1-4)GlcNAc6S): -0.209
glycan array binding signal (z-score) (GalNAc(b1-6)GalNAc): -0.01
glycan array binding signal (z-score) (GalNAc3S(b1-4)GlcNAc): -0.614
glycan array binding signal (z-score) (GalNAc3S(b1-4)GlcNAc3S): -0.147

— the supplement of paper PMC8728848
